Laboratory results as given in PubChem BioAssay AID1347423 (Functional Genomics Laboratory (NCATS/FGL), 2020).
The campaign covered roughly 52,000 sequences. About 210 (0.4%) were called active.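 The calls were made as follows: active = gene whose silencing raises cell survival under the drug, median off-target-corrected z-score across its silencing RNAs 2 or more; inactive = the rest.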 Some of the results follow.

Experiment: Resistance to Poly (ADP-Ribose) Polymerase inhibitor: Gene Identification via Genome-wide siRNA Screen
Details: mouse BRCA2 R2336H ES cells, olaparib, CellTiter-Glo viability; hits give high values
Outline: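 Genome-wide siRNA screen (3 siRNAs/gene, 20 nM) in mouse ES cells carrying hypomorphic BRCA2 R2336H; olaparib 500 nM added 48 h post-transfection, CellTiter-Glo viability 72 h later. Normalized to plate-median negative control; MAD z-scores, gene median, seed-adjusted.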
For GGAGAAGAUGGAGAAGACCTT against Ptrf, the z-score was inactive: 0.726.
In the case of GCAAACGGACACUUGGAAUTT against Hmx1, the z-score is reported as inactive: 0.265.
For GGCUUUACGAGGAAAAAGGTT against Pex1, the z-score was inactive: -0.166.
For GCAGCUGGCUGCUUUCACATT against AV028368, the z-score was inactive: -0.955.
For GCACCAUUUGAGUUUUUCUTT against V1rc32, the z-score was inactive: 0.64.
With GGAUGACUAAAAUGUUAAGTT against Slc20a2 the z-score was inactive: 2.26.
In the case of GGUCAGGUGGCUCAAGAAGTT against Plod3, the z-score is reported as inactive: 2.73.
In the case of GGUAUAUCUGAGUUUCUACTT against Sgcz, the z-score is reported as inactive: -0.312.
For GGAAGCUCUAAAAAGAGUGTT against Olfr23, the z-score was inactive: 0.234.
For GCAAAUUUUGUACCAGGCCTT against Tcf2, the z-score was inactive: 0.583.
With GGCCAAAGACUUUUGGAAUTT against Rgs1 the z-score was inactive: -0.0471.
With GCGGUAUGGGAAGCUAAAGTT against Rhbdf1 the z-score was inactive: 1.16.
In the case of GGUAUUGACAGGGAUCUGATT against Limk1, the z-score is reported as inactive: -0.413.
In the case of GCAUGACUCUCAGGUCAAGTT against Lman2, the z-score is reported as inactive: -0.311.
For CCUGCUACCAGAUGAACCATT against Man1b1, the z-score was inactive: -1.54.
For “GGACACAAUACCACUGACCTT against 2310009E07Rik”, the z-score was inactive: 0.167.
For GGCGACACAUUAAAAUAGUTT against Mepe, the z-score was inactive: 1.87.
For GGUUACCAUGAAGGCUGGATT against Bpil3, the z-score was inactive: -2.49.
In the case of GGUUAUGAAACUUGGAAAUTT against Cdkn2c, the z-score is reported as inactive: -0.00137.
With GGAGACACCCGAAAUACAUTT against Adam18 the z-score was inactive: 0.694.
With GGCCAUGACAUCACAGAACTT against Eif3s5 the z-score was inactive: -3.17.
With GGAAACCAGAAAGAUCAUGTT against Phkg1 the z-score was inactive: -0.061.
With “GGCUCAAGAGAAAAGAAGGTT against 8030411F24Rik” the z-score was inactive: 1.33.
For GGAAGGGUUUGUUUGUUUATT against Nkiras1, the z-score was inactive: 0.368.
With GCCAAAGACGAUUAUCGAATT against Hook3 the z-score was inactive: -0.151.
In the case of CCCUCUUCUGUAUGCAUCGTT against Olfr262, the z-score is reported as inactive: 0.362.
For GGCUACAUGAGAAGCACAGTT against Disc1, the z-score was inactive: -1.91.
For GGGACACCCUUUGAAGAUGTT against Ube2b, the z-score was inactive: 2.75.
For GGUGGACAUCUUGGACAUUTT against Amn, the z-score was inactive: 0.00406.
For “GGACAAUGUGGUAGUGGACTT against 1110012M11Rik”, the z-score was inactive: -0.946.
For GGAGAUUGACAUCCUGCCUTT against Pdk4, the z-score was inactive: 0.332.
For GGAGACCUGAUUCCAGGCATT against Zfa, the z-score was inactive: -1.13.
With “GGUGCUCCACAACACCUAUTT against 2510039O18Rik” the z-score was inactive: 2.34.
In the case of GGAAGAAUGCCACAAGGGATT against Irx6, the z-score is reported as inactive: 0.32.
In the case of GGAAGAUGAUGAUAAUGAGTT against Cdv3, the z-score is reported as inactive: -0.243.
With “CGAGGAUACGUUUGCAUCUTT against 2310044G17Rik” the z-score was inactive: 0.172.
In the case of GGUAACAAACUACAUUUGCTT against Pcdhb16, the z-score is reported as inactive: 1.26.
For GCUGUUCCUCUUUCUUUCUTT against Olfr522, the z-score was inactive: -0.0794.
In the case of GGGAUUGGGUAUUUUUUAGTT against B4galt1, the z-score is reported as inactive: 0.972.
For CCAUAUCCAAUAAUAGAGATT against Trip12, the z-score was inactive: 0.89.
With GACCAAAGCACUGACUAUGTT against Lyzs the z-score was inactive: -0.0887.
In the case of GGAAUUAAGGUAGAGGUUATT against Ms4a11, the z-score is reported as inactive: -1.31.
For “GGUUUCAAGACAUUGAAAGTT against 2700007P21Rik”, the z-score was inactive: -0.25.
In the case of “GGAGGACUUUCAGUUAUAUTT against 1110031I02Rik”, the z-score is reported as inactive: 0.438.
For GCAGUUAUCAAUAAUUCCCTT against AK129375, the z-score was inactive: -1.51.
For GCAUCCUCAUCAUUCCAAATT against Cd226, the z-score was inactive: -0.217.
For CGAAACCAAUCUAAAGAAGTT against Aco2, the z-score was inactive: -2.06.
With GCUGACCAUUUCCACCAGATT against Galgt2 the z-score was inactive: -1.13.
For GGACUUGAGAAAAAUGUUATT against Odag, the z-score was inactive: -0.385.
In the case of GGUGGUAUUGUUGGCUUUATT against Olfr1297, the z-score is reported as inactive: -0.466.
With CGGGAUCCUGUUUCAAGCUTT against Abr the z-score was inactive: 0.158.
With GGAUUUUUGAUGAUGUGUCTT against Arfgap1 the z-score was inactive: 1.9.
With “GGAAACAGAACAGAUAUUUTT against 5430439G14Rik” the z-score was inactive: -1.25.
For CCGUGUGAGAUAUGAAGAATT against LOC381062, the z-score was inactive: -0.461.
For GGCUCUGAAUCAGAAGAGUTT against Adamtsl2, the z-score was inactive: -0.847.
For GGAAUGUGUGGGUUUUCCUTT against Tmem14c, the z-score was inactive: -0.908.
In the case of CUUUUUCUUGCUCUUUGGATT against MOR135-11, the z-score is reported as inactive: 0.215.
For GGAAAAAGCACCAUUGUGATT against Gnao1, the z-score was inactive: -0.458.
For “GCCACAUCAGAUGAAGUCCTT against B930008A12Rik”, the z-score was inactive: 2.2.
With GCAGAGGAACAAGGCAUGUTT against Olfr345 the z-score was inactive: 0.0798.
For GCAUCCACCUCAACGAUAUTT against Dlgh3, the z-score was inactive: -0.965.
For CACCUCUGGUGAAAGCUAATT against Bola1, the z-score was inactive: 0.559.
For GCAGCAUUGAUAAAUGGUCTT against Rab3c, the z-score was inactive: 0.0206.
In the case of CGGAAGUAAAAAGAACUACTT against Olfr1321, the z-score is reported as inactive: 0.727.
With GGACGGCCUGUUUGUUAUATT against Olfr1346 the z-score was inactive: -0.159.
For GGCACUGGGCAAACAUUAATT against Ptprcap, the z-score was inactive: -1.77.
With GCGUGCUUCUGUUUACCAUTT against Hnrpl the z-score was inactive: -0.0284.
In the case of GGGCAACACCAUGGAGAUCTT against Crybb1, the z-score is reported as inactive: 0.313.
With GGAGACAUGUUCCACAGGCTT against Ngfr the z-score was inactive: -0.0103.
In the case of CGAGUGGAAAGAUUUAUAGTT against Ubxd4, the z-score is reported as inactive: -0.419.
In the case of ACUCCUUCCGAGUUGUUGGTT against Vasp, the z-score is reported as inactive: 0.613.
With “AAUCUAUUAGGUUAGAGGATT against 9630041A04Rik” the z-score was inactive: 1.63.
In the case of GCCAUUCUAAGCUGCCAAATT against BC025519, the z-score is reported as inactive: 0.691.
For GCAUGAUGCUGAGACAAGATT against Sprrl1, the z-score was inactive: -0.0479.
In the case of AAAGAAACUAGAGAGAGCATT against LOC434320, the z-score is reported as inactive: 0.388.
For GGGCUAUGUCCACAGCUUUTT against Il27, the z-score was inactive: -1.11.
For GGAUGAGUUUCAGAACAGUTT against Ifit2, the z-score was inactive: 1.68.
In the case of “GGAGAGACCACCCUUUCAGTT against B430104H02Rik”, the z-score is reported as inactive: 1.01.
For “CCGAGAACAGUUGAAGAAGTT against D530025C17Rik”, the z-score was inactive: 0.272.
For GGUACUGGCAUGGUGACAATT against Mmp11, the z-score was inactive: -1.69.
In the case of “GGCUGAAUAGUCCUAGCAGTT against 2010004J24Rik”, the z-score is reported as inactive: 2.3.
In the case of “CCCUAAAUCCAAAAAGGGCTT against F730038I15Rik”, the z-score is reported as inactive: 0.657.
With GGCUUCCUAAGGGAUAAGATT against Slc16a11 the z-score was inactive: -0.4.
With “CUCUGCUUUUUUCCUGUGCTT against D130007C19Rik” the z-score was inactive: -1.26.
With GGAACAGAGAAGCUACUAATT against Ddx3x the z-score was inactive: -2.93.
With GGCAGAUCUUGCUGACAUCTT against Cml2 the z-score was inactive: -2.4.
For GGUAAAUUACCCAAAGGUATT against Mkl1, the z-score was inactive: -1.17.
With CCGGGUCAAGUUGGUCAACTT against Ascl1 the z-score was inactive: 1.49.
For GGCCUUGUUAACAGAACAUTT against Sgol2, the z-score was inactive: -0.858.
For GGACCUUUAAAGCUAAGCUTT against Wisp2, the z-score was inactive: -0.199.
In the case of GGUUUUCUAGUUUGAGUUUTT against Atp1b2, the z-score is reported as inactive: 0.538.
In the case of GGUGAACAGAUCGCCAUCATT against Ikbkb, the z-score is reported as inactive: -1.3.
With CCAAUUGGAAUCCCAUUUUTT against Cd47 the z-score was inactive: 1.28.
In the case of GGCUUUCUUCAACCUGAGUTT against BC019755, the z-score is reported as inactive: 0.218.
With CCCACUAUCAACACUGGUATT against Gm609 the z-score was inactive: 1.87.
In the case of GCCAAUAGCAUCUGUGGACTT against Olfr566, the z-score is reported as inactive: 0.361.
For CGAGUCAAGUGUGUGAACGTT against Ascl3, the z-score was inactive: 0.946.
For GCAUGGUAGUUCUUUAGCATT against Xcr1, the z-score was inactive: -0.258.
In the case of GCAGCAAUCAGAUCAUGUATT against Gm1631, the z-score is reported as inactive: 1.31.
For GGUAUAUGGCCAUUAUCGATT against Tacr3, the z-score was inactive: 0.0356.
For GGAAAAAGAUGGAAGAAUUTT against Thoc1, the z-score was inactive: -2.48.
In the case of “CGCGCAGAUGCACCAGAUUTT against 2610028H24Rik”, the z-score is reported as inactive: -1.69.
In the case of CCUUUUAUCACAUUCGGAGTT against Rnf133, the z-score is reported as inactive: 2.38.
In the case of “GGGUAUAAAUGCCAGUAAATT against C230050L11”, the z-score is reported as inactive: -0.464.
